For series [1] the following is noted: rats, n = 6, median (range).
The nature of another series: in vivo. The settings on record: male, Sprague-Dawley, rat, plasma, po; for AUC(0-t): AUC0-24 h of fexofenadine; for AUC(0-t) / Cmax: rats, n = 6, mean ± SD; for Cmax: Cmax of fexofenadine.
Setting [2] is: fexofenadine 10 mg/kg oral with R. acetosa extract 2 g/kg oral.
Where [3] appears, read: 10 mg/kg, fexofenadine 10 mg/kg oral with R. acetosa extract 2 g/kg oral.
Where [4] appears, read: 10 mg/kg, fexofenadine 10 mg/kg oral with emodin 11 mg/kg oral.
The mark [5] stands for this setting: 10 mg/kg, fexofenadine 10 mg/kg oral with vehicle (control).

The structures appear in SMILES notation. Counter-ions that a name gives are not always drawn. Like-named read-outs stand apart in the source and are kept apart here.

Consider `CC(C)(C(=O)O)c1ccc(C(O)CCCN2CCC(C(O)(c3ccccc3)c3ccccc3)CC2)cc1` (stereo not shown) [fexofenadine, Fexofenadine hydrochloride], for which the Tmax of fexofenadine is reported as 0.75 (0.25–8) h in series [1] (setting [2]) and 0.75 (0.5–1) h in series [1] (fexofenadine 10 mg/kg oral with emodin 11 mg/kg oral). In addition, the Tmax in “in vivo” (10 mg/kg) amounted to 45 min. The AUC(0-t) in the series “in vivo” (setting [3]) was found to be 132 ± 50.5 ng·h/mL; in “in vivo” (setting [4]) it was 412 ± 189 ng·h/mL; in “in vivo” (setting [5]), 222 ± 85.5 ng·h/mL; in “in vivo” (setting [2]) it was 132 ± 50.3 ng·h/mL. Further, the Cmax in the series “in vivo” (setting [3]) was determined as 32.9 ± 28.5 ng/mL; in the series “in vivo” (setting [4]), 53.4 ± 33.9 ng/mL; in the series “in vivo” (setting [5]) it was 36.4 ± 22.8 ng/mL.

The values are drawn from paper PMC7355497, “Effect of Rumex Acetosa Extract, a Herbal Drug, on the Absorption of Fexofenadine” (Pharmaceutics, 2020).
